These results are taken from PMC8611336.

The target in the test is T1, Brr6-yeGFP (budding yeast) (UniProt P53062).
T1 sequence: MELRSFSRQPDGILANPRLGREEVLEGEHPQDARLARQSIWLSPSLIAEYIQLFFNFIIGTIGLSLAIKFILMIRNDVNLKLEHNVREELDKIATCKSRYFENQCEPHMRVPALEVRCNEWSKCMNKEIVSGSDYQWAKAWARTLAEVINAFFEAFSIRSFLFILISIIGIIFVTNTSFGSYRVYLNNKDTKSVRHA
Put plainly: co-IP; Brr6-yeGFP precipitated from yeast lysate (0.5% Triton X-100) with GFP-Trap agarose beads, 2 h at 4°C; blots with anti-HA (Apq12-6HA) and anti-Brl1; APQ12 and apq12-ah backgrounds.

These are yes or no findings as the source states them, for the method shown. In cells and extracts the contact can be indirect. Some results given as binding are weak or reduced against the parent protein; the word gives no strength. Tags and fused reporters may be left off the sequences shown.

B1: Apq12-6HA (protein, UniProt P40532 1-138)
chain: MDATQPQYELSVVTQCLKSAIDVIQWLIPTITKFSQSHPLVFQLLFIFFTFYVFYKLLMNFITLVKRFLYLTLVVTCIGIYMRGSQQFLTVDLLNFYNFVMSNRYYAFKIYTLFINALEREINTVYHLAQMKMEQLLK
With B1, the binding entry was “binds”.

B2: Brl1 (protein, UniProt P38770 1-471)
chain: MESFENLSIRDSFTSGMEHVDEELGGLSDLSISKQGPTLSPQLINRFMPHFPSSPSPLRNTLDFSAAKADEEEDDRMEIDEVDDTSFEEEYNNEPIETHTEATENAVVEEIEATPEERQKQEKNESQDQSVEEVENIVSPHRSTVIKALLSPTDLGVAAATKVEGVVPLPPSANQDDNESSNNNAEGEDIIRNEEVEDEIKSSLGNHKSSQYANAFDSEIIKRELRSRSKYQPIQVSFNTHNYFYSDKDGIKTYSLTKPNHNKIDEFYDQNEAFKLPKPWSPNSHPASRASYALMSYLQLFLNAITTVVIFSFILSFIIALQKDLKSTWEQRKHELQYESRICQEQYLTNRCNQTPGLPALGEQCAIWKQCMDRNNDIFFRARSTLSAKLFGDIINSFIDPLNWKTLFVIFCGVITWCFSSNFLLGFVRAKSYYGNGIKTYPLPSSPKSPTSEETHSSMTASGEDSHLLKQ
As for B2, the binding result is “binds”.
